# Experimental data published in patent publication US9993494B2, “Compositions and methods for treating fibrotic disease” (eFFECTOR Therapeutics, Inc., priority 2014, dated 2018).
# Tests used:
# [1] = tested on: normal human lung fibroblasts; assay: Ribosomal profiling: translational efficiency in TGFβ-treated fibroblasts; format: cell-based
# Procedure: Ribosomal profiling allows for measurement of changes in transcription and translation on a genome-wide basis accompanying TGFβ-dependent transformation of fibroblasts to myofibroblasts. Ribosomal profiles of the TGFβ-treated fibroblasts from Example 1 (about 6×10^6 cells/10 cm plate) were prepared and analyzed for changes in translational efficiencies with respect to potential disease-associated cellular changes accompanying this TGFβ-induced transformation.
# Briefly, cells were washed with cold PBS supplemented with cycloheximide and lysed with 1× mammalian cell lysis buffer for 10 minutes on ice. Lysates were clarified by centrifugation for 10 minutes at 14,000 rpm and supernatants were collected. Cell lysates were processed to generate ribosomal protected fragments and total mRNA according to the instructions included with the ARTseq Ribosome Profiling Kit (Illumina, San Diego, Calif.). Sequencing of total RNA (RNA) and of ribosome-protected fragments of RNA (RPF) was carried out using RNA-Seq methodology according to the manufacturer's instructions (Illumina). To analyze the ribosomal profiles, RNA-Seq reads were processed with tools from the FASTX-Toolkit (fastq_quality_trimmer, fastx_clipper and fastx_trimmer). Unprocessed and processed reads were evaluated for a variety of quality measures using FastQC, and processed reads were mapped to the human genome using TopHat (see, e.g., Trapnell et al., Bioinformatics 25:1105, 2009). Gene-by-gene assessment of the number of fragments strictly and uniquely mapping to the coding region of each gene was conducted using HTSeq-count, a component of the HTSeq package. […] Genes with low counts in either RPF or RNA were excluded from differential analyses. Pathway and network analyses of differential data were conducted using Ingenuity Pathway Analysis (IPA).
# [2] = tested on: normal human lung fibroblasts; assay: Procollagen Type 1 C-Peptide (PIPC) EIA in culture media of TGFβ-treated fibroblasts; format: cell-based; settings: 10 ng/ml TGFβ, 24 hours, FIG. 1; read-out: EC50 for blocking the TGFβ-induced increase in procollagen production
# Procedure: Briefly, normal human lung fibroblasts (Lonza #CC-2512; cell passage numbers 2 through 5 were used for all experiments) were seeded (Day 0) and cultured in Dulbecco's modified Eagle medium (DMEM) supplemented with 10% fetal bovine serum (FBS), penicillin, streptomycin and glutamax (Invitrogen) at 37° C. in a humidified incubator with 5% CO2 overnight. On Day 1, cells were harvested, washed with phosphate buffered saline (PBS), and then incubated for 48 hours in fresh serum-free DMEM supplemented with penicillin, streptomycin, and glutamax.
# After this 24 hour incubation, procollagen type 1 levels were measured by collecting culture media, centrifuging to pellet cellular debris, and stored at −80° C. Procollagen Type 1 C-Peptide (PIPC) was quantified using the (PIP) EIA kit (Clontech, Cat. No. MK101) according to manufacturer's instructions. The TGFβ-treated fibroblasts of this example were examined by ribosomal profiling (about 6×10^6 cells/10 cm plate) and western blot analysis (about 1×10^6 cells/well of a 6-well plate). […]
# After this 24 hour incubation, procollagen type 1 levels were measured by collecting culture media, centrifuging to pellet cellular debris, and stored at −80° C. Procollagen Type 1 C-Peptide (PIPC) was quantified using the (PIP) EIA kit (Clontech) according to manufacturer's instructions. […]
compound,measurement,setting,value
CC(C)n1nc(-c2cc3cc(O)ccc3[nH]2)c2c(N)ncnc21 [PP242],renormalizing the translational profile of KITLG,"[1]; ENSG00000049130, TGFβ-treated fibroblasts",− (− = <0.9)
same,renormalizing the translational profile of KDM2B,"[1]; ENSG00000089094, TGFβ-treated fibroblasts",− (− = <0.9)
same,renormalizing the translational profile of KDM6B,"[1]; ENSG00000132510, TGFβ-treated fibroblasts",− (− = <0.9)
same,renormalizing the translational profile of MICA,"[1]; ENSG00000204520, TGFβ-treated fibroblasts",− (− = <0.9)
same,translational efficiencies of procollagen and α-SMA,[1]; TGFβ and PP242 treatment,essentially independent
same,number of genes whose translational efficiency was uniquely modulated by the compound,"[1]; TGFβ-treated fibroblasts, duplicate ribosomal profiles",five
same,mean increase in translational efficiency of all genes in the eIF2 pathway,[1]; fibroblasts treated with TGFβ and PP242 (TGFβ alone 0.65 log2),0.09 log2
same,mean increase in translational efficiency of the 12 eIF2 signaling pathway genes,[1]; fibroblasts treated with TGFβ and PP242 (TGFβ alone 1.3 log2),0.4 log2
same,EC50,[2],~0.2 µM
